Laboratory results as given in doi:10.1101/102442.

Sequences of proteins named here, by UniProt entry; tags and fusion partners are left off.
UniProt Q6WKZ8: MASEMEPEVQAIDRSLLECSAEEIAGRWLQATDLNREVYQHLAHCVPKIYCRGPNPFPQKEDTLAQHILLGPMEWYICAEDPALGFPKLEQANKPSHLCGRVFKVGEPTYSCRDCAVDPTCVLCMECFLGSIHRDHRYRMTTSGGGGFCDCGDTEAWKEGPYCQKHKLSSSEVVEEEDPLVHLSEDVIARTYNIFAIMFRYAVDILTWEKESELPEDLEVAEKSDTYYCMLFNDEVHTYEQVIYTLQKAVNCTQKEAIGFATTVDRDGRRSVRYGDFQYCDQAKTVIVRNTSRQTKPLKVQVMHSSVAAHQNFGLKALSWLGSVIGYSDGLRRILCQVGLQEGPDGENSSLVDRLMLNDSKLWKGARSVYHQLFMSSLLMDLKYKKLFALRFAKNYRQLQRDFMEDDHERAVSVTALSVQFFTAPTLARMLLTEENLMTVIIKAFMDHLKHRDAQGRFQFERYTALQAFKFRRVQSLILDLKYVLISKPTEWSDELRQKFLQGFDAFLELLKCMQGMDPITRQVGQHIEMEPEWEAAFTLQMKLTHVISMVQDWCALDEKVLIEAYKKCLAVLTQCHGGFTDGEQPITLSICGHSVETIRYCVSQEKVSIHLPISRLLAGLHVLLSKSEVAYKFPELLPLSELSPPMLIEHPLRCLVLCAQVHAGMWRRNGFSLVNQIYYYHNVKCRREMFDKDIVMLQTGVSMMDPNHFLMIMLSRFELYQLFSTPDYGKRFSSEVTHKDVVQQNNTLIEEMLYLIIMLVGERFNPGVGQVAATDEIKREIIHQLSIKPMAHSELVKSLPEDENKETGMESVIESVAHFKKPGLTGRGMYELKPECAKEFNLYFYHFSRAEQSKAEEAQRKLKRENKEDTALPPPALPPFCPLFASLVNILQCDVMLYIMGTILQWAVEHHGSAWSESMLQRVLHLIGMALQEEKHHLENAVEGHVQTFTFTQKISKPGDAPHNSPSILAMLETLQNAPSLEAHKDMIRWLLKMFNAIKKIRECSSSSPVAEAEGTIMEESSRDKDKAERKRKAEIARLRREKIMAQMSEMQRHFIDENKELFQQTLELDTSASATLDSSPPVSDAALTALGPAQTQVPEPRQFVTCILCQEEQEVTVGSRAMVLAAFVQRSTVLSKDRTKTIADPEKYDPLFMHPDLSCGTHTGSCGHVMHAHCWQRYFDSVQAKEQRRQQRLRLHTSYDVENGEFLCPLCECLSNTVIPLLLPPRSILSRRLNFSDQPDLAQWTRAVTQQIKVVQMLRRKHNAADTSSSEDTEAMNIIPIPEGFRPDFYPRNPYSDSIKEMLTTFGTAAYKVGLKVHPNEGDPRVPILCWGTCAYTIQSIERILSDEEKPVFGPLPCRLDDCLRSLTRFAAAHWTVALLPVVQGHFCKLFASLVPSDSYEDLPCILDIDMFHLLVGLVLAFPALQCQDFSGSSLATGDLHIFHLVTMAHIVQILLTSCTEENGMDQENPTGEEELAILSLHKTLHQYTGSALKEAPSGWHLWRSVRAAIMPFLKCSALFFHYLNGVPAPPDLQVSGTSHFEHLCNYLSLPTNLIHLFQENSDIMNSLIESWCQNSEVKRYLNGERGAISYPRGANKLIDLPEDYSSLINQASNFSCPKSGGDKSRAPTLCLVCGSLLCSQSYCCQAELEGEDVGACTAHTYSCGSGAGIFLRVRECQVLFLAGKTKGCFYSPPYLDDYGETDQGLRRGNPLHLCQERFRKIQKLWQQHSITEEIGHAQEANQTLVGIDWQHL

Target: T1, TEX19.1-YFP (mouse ESCs) (mouse) (UniProt Q99MV2)
T1 sequence: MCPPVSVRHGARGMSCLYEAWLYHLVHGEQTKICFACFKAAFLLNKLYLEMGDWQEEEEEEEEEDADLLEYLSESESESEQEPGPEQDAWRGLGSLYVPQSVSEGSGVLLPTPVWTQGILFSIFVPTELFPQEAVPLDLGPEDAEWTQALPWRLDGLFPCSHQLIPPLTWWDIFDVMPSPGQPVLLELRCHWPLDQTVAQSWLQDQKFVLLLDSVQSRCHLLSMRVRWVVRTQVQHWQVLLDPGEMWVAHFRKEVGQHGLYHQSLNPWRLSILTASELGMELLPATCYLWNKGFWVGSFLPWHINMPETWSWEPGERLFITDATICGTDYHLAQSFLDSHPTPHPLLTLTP
Experiment: affinity purification with mass spectrometry

binding: binds
Substance: UBR2 (endogenous, mouse ESCs) (from UniProt Q6WKZ8 1-1755) (enzyme)

These are yes or no findings as the source states them, for the method shown. Binding seen in cells or lysates may run through a third protein. A yes stands for co-enrichment or nearness to the bait. Other partners may have been found. Where a sequence is shown, tags or fusion partners need not be part of it.
